Source: patent publication US20130005699A1, “METHODS AND PRODUCTS FOR TREATMENT OF DISEASES” (DMI ACQUISITION CORP., priority 2009, published 2013)
For at least one compound, name, drawing or mass did not settle the structure.

Key:
[1] = test system: human retinal endothelial cells; assay: Actin stress fiber formation, rhodamine-phalloidin staining, TNFα (Example 7); details: LY294002 10 μM, TNFα 50 ng/ml, 30 minutes
[2] = test system: human retinal endothelial cells; assay: Actin stress fiber formation, rhodamine-phalloidin staining, VEGF (Example 8); assay type: cell-based; details: LY294002 10 μM 30 minutes, then VEGF 25 ng/ml 30 minutes
Protocol: . […] To counter-stain for nuclei, 100 μl of a 3 μM DAPI (4,6-diamidino-2-phenylindole, dilactate (Invitrogen)) solution was added to each well. After 5 minutes, the cells were washed two times with 100 μl PBS.

## O=c1cc(N2CCOCC2)oc2c(-c3ccccc3)cccc12 [LY294002]
[1]
  effect on stress fiber development with TNFα: decreased the number of cells exhibiting stress fiber development
[2]
  change of the VEGF stress fiber pattern: prevented the strong stress fiber development seen with VEGF
